Data reported in paper PMC5034320, “Modulation of yeast telomerase activity by Cdc13 and Est1 in vitro”.
Where a chain is given by its changes, count along the chain named. For some assays here: Negatives hold for the conditions tested. For some assays here: At least one verdict was read from the data and is not stated in words by the source. Protein sequences can lack the tags named with them. For some assays here: Construct, isoform or probe ends are uncertain for at least one entry. For some assays here: The comparison behind a weaker result is the experiment's own reference, which may not be listed here.

How the values were obtained:
[1] = biological target: T1, Cdc13-BD Y522C (Saccharomyces cerevisiae) (UniProt P32797); experiment: EMSA; conditions: 20-80 nM protein, 30 nM DNA, 6% native gel, buffer not stated, recombinant protein, residues 451-693, protein details: 6xHis
T1 sequence (looked up): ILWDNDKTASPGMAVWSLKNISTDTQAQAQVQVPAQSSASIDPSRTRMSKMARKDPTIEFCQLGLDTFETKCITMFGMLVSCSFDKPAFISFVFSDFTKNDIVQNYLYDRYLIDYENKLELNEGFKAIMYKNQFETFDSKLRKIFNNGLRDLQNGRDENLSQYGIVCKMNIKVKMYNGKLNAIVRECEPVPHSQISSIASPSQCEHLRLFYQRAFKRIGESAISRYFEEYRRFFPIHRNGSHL

[2] = biological target: T2, Cdc13-BD R635C (Saccharomyces cerevisiae) (UniProt P32797); experiment: EMSA; conditions: 20-80 nM protein, 30 nM DNA, 6% native gel, buffer not stated, recombinant protein, residues 451-693, protein details: 6xHis
T2 sequence (looked up): T1 sequence (looked up) with C72Y, R185C

[3] = biological target: T3, Est1 (Saccharomyces cerevisiae) (UniProt P17214); experiment: DMS footprinting; conditions: 900 nM Est1 alone, cleavage pattern unchanged; 3'-NH2 on C20; DMS footprint: 50 mM cacodylate pH 7.0, 25 C 10 min, then 0.05% DMS 22 C 15 min; recombinant protein; protein details: 6xHis; label: 5'-32P on T21
T3 sequence (looked up, limits assumed): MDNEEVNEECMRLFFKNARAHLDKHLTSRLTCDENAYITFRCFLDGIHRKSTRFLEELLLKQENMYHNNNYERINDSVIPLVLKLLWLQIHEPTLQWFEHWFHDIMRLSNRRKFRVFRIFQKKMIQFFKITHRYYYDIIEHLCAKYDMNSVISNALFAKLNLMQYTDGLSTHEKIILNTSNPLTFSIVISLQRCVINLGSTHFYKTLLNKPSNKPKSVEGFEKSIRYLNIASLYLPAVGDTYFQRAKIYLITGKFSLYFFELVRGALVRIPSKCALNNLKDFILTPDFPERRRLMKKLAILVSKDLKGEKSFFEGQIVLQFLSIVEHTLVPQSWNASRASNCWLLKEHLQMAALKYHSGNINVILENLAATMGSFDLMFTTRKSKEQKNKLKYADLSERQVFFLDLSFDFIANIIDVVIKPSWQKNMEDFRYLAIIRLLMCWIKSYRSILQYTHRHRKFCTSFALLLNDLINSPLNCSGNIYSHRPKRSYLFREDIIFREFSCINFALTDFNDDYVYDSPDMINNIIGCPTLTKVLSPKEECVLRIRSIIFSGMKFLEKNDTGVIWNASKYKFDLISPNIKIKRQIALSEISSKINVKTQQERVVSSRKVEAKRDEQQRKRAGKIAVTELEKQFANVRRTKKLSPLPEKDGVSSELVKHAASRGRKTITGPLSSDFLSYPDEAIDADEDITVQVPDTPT

[4] = biological target: T4, Cdc13 (Saccharomyces cerevisiae) (UniProt P32797); experiment: DMS footprinting; conditions: plus Est1 100-900 nM, protected G residues exposed at 3' end, dose-dependent; 3'-NH2 on C20; DMS footprint: 50 mM cacodylate pH 7.0, 25 C 10 min, then 0.05% DMS 22 C 15 min; recombinant protein; protein details: 6xHis; label: 5'-32P on T21
T4 sequence (looked up, limits assumed): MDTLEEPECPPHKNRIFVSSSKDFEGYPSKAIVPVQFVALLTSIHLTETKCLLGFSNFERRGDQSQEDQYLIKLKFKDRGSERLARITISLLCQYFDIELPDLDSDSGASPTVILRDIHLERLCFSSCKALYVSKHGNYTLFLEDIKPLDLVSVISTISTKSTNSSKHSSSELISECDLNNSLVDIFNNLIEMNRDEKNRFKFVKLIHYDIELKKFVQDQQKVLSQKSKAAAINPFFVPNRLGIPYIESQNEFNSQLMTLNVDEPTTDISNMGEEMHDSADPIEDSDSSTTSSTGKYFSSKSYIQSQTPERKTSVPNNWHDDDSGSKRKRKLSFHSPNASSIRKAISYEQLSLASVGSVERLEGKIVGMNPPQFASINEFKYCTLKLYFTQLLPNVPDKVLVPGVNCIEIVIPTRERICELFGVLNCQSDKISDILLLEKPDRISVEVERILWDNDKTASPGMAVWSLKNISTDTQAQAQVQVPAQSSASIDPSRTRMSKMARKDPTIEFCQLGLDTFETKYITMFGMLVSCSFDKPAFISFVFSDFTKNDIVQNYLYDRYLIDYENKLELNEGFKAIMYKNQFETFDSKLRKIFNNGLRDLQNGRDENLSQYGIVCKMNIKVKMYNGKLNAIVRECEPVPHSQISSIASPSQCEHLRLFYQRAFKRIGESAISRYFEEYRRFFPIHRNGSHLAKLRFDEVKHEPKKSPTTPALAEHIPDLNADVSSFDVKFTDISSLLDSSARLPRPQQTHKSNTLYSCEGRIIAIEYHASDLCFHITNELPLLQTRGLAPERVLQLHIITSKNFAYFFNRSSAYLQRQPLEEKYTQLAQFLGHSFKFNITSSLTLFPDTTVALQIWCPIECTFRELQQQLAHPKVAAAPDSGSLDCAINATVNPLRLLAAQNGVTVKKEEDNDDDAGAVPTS

[5] = biological target: T4, Cdc13 (Saccharomyces cerevisiae); experiment: EMSA; conditions: plus Est1-TAP 80 or 240 nM, binding slightly decreased; 3'-NH2 on C20; EMSA: room temperature 5 min (30 C in Fig 5E), 30 nM DNA, 6% native gel, buffer not stated; recombinant protein; protein details: 6xHis; label: 5'-32P on T21
[6] = biological target: T5, Cdc13-BD (Saccharomyces cerevisiae) (UniProt P32797); experiment: EMSA; conditions: 20-80 nM protein, 30 nM DNA, 3'-NH2 on C20, EMSA: room temperature 5 min (30 C in Fig 5E), 6% native gel, buffer not stated, recombinant protein, residues 451-693, protein details: 6xHis, label: 5'-32P on T21
T5 sequence (looked up): T1 sequence (looked up) with C72Y

[7] = EMSA: room temperature 5 min (30 C in Fig 5E), label: 5'-32P, single-stranded DNA
[8] = 3'-NH2 on C20, EMSA: room temperature 5 min (30 C in Fig 5E), label: 5'-32P on T21

| Sequence | binding result [1, 7] | binding result [2, 7] | binding result [3] | binding result [4] | binding result [5] | binding result [1, 8] | binding result [6] | binding result [2, 8] |
| --- | --- | --- | --- | --- | --- | --- | --- | --- |
| ATGGCTAGGTAGCCGAATTGCGTAGGTGGGTGTGGTGTGTGTGGG [T21] | no binding | no binding | – | – | – | – | – | – |
| ATGGCTAGGTAGCCGAATTGCGTAGGTGGGTGTGGTGTGTGTGGG / CCCACCTACGCAATTCGGCTACCTAGCCAT [T21/C20 tailed duplex] | – | – | no binding | binds more weakly | binds more weakly | no binding | binds | no binding |
